Reference: article PMC8135044, “Lytic transglycosylase MltG cleaves in nascent peptidoglycan and produces short glycan strands” (The Cell Surface, 2021)
No constants are given. Whether binding was seen depends on the method and setting. Binding calls can cover weak binding; strength is not graded here. Where a sequence is shown, tags or fusion partners need not be part of it.

Amino acid sequences for entries named in this document (tags omitted). A change or cut given only in a name is not applied to a line headed by its entry.
UniProt P39793: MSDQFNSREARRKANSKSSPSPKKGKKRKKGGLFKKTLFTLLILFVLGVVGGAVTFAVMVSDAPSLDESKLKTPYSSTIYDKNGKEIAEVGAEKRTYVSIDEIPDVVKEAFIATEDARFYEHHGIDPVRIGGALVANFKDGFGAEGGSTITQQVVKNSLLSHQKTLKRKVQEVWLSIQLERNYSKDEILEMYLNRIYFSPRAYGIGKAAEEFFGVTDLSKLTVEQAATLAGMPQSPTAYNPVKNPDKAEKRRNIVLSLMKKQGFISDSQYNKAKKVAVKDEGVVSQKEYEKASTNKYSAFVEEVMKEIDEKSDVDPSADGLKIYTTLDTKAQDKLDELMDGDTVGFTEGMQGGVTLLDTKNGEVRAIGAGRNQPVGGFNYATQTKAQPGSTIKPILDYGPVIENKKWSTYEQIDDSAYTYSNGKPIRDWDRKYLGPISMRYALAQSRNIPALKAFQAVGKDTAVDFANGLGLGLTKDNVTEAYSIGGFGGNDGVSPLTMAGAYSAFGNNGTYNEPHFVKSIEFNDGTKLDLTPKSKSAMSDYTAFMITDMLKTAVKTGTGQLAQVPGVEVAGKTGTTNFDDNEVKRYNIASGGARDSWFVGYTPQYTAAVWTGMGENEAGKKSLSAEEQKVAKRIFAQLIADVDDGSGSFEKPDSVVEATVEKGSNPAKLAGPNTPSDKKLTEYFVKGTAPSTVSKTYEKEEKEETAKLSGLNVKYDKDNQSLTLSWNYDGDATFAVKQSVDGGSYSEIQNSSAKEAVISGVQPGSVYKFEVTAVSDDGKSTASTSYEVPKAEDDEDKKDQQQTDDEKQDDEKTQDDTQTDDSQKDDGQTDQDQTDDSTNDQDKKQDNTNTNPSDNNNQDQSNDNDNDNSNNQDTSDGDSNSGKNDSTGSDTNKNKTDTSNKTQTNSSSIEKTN

Target: T1, hexahistidine tagged BsMltG (His-BsMltG) (Bacillus subtilis) (UniProt O34758)
T1 sequence: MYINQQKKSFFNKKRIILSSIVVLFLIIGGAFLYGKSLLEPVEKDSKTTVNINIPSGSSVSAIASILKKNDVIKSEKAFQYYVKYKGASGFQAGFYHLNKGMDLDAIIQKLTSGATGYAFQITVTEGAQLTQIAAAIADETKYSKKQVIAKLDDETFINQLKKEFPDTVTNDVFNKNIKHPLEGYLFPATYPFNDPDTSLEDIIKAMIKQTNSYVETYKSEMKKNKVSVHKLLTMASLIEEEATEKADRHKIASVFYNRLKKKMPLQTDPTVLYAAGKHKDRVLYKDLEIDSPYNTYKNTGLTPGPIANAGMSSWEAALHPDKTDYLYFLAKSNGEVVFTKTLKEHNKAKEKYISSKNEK
Assay: pull-down; proteins 1 uM each in 10 mM Hepes/NaOH, 10 mM MgCl2, 150 mM NaCl, 0.05% Triton X-100, pH 7.5; Ni-NTA beads overnight at 4 C; wash with 500 mM NaCl, 50 mM imidazole; Coomassie-stained SDS-PAGE; His-BsMltG as bait; both purified

binding: binds
Substance: BsPBP1 (from UniProt P39793) (enzyme)
